Laboratory results: PMC4196966
Results are given in words; binding and its absence hold for the method and conditions named. In cells and extracts the contact can be indirect. Some entries that bind do so weakly or less than the wild type.

Chains of the proteins cited; added tags and fusions are not shown. Residues count along the entry.
UniProt P21802, residues 22-821: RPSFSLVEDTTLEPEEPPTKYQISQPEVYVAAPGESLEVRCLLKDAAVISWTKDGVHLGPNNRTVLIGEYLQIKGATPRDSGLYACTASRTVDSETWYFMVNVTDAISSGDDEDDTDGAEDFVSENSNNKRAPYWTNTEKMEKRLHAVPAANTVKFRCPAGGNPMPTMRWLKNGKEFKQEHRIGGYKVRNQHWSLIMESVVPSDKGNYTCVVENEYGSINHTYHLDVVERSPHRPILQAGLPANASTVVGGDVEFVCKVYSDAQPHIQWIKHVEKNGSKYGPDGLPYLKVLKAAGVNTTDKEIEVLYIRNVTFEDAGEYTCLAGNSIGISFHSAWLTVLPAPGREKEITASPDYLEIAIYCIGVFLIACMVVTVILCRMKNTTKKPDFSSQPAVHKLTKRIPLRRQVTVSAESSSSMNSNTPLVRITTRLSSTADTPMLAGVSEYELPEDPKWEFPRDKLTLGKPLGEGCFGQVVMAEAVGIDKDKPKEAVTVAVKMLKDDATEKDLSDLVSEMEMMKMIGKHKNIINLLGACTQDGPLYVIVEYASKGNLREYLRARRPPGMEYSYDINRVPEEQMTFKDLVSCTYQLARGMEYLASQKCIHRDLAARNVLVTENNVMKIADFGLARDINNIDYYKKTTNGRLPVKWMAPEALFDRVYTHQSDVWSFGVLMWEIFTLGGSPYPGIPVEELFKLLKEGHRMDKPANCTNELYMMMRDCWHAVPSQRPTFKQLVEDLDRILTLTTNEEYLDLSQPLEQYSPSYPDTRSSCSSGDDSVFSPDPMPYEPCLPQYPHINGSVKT

Assays:
[1] = molecular target: Fibroblast growth factor receptor 2 (FGFR2) (human (endogenous in U-251 MG)) (UniProt P21802); assay: cross-linking; U-251 MPI-shRNA knockdown clones, serum starved, stimulated with FGF-1 (50 ng/mL, 30 min); intact cells cross-linked with 4 mM BS3, lysed, FGFR2 immunoprecipitated (MAB6841), 7.5% SDS-PAGE and blot
[2] = molecular target: Fibroblast growth factor receptor 2 (FGFR2) (human (endogenous in U-251 MG)) (UniProt P21802); assay: condition: only in MPI-shRNA knockdown cells, without FGF-1 stimulation; cross-linking; U-251 MPI-shRNA knockdown clones, serum starved, not stimulated; intact cells cross-linked with 4 mM BS3, lysed, FGFR2 immunoprecipitated (MAB6841), 7.5% SDS-PAGE and blot
[3] = molecular target: Fibroblast growth factor receptor 2 (FGFR2) (human (endogenous in U-251 MG)) (UniProt P21802); assay: cross-linking; U-251 control cells, serum starved, with or without FGF-1 (50 ng/mL, 30 min); intact cells cross-linked with 4 mM BS3 (not cell permeable), lysed, FGFR2 immunoprecipitated (MAB6841), 7.5% SDS-PAGE and blot; monomer and dimer bands

“Fibroblast growth factor receptor 2 (FGFR2) (from UniProt P21802 22-821)” was tested, and the binding [1] was “binds weakly”, the binding [2] was “no binding” and the binding [3] was “binds”.
